The other results are listed elsewhere or left out.
Molecular target: OsWRKY34 (Oryza sativa, UniProt Q0JBA9 1-250)
Assay: protein-binding microarray (RPBM); PBS, 2% BSA, 51.3 ng/ul salmon testes DNA, 50 uM zinc acetate, 200 nM TF, 25 C, 1 h; high values mean tight binding
Settings: protein: recombinant; tags: N-terminal polyhistidine and DsRed monomer fusion (pET32a); label: CyDye5-dUTP incorporated in the synthesized complementary strand; 3' TTTTT single-stranded linker to array surface; dsDNA, one strand shown
In short: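 Binding signal is reported as fluorescence intensity per feature (arbitrary units) from an Axon 4000B scanner. Incubation used 200 nM of each Ni–NTA-purified, N-terminally polyhistidine- and DsRed-fused transcription factor from E. coli BL21-CodonPlus on a double-stranded custom Agilent array for 1 h at 25 °C, with 50 µM zinc acetate in the buffer, followed by washing.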

By UniProt entry, the sequences of proteins in these tests, tags left out.
UniProt Q0JBA9, entry or part of it: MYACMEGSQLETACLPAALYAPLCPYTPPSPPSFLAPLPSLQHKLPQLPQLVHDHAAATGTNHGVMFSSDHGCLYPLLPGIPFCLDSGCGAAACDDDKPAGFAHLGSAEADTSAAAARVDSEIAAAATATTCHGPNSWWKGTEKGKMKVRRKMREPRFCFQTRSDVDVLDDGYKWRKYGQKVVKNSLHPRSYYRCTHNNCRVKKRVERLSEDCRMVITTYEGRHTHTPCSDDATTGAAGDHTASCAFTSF

Sequence	binding signal
TTCCTTCAAGCACAAAGCCATTGATATTCTTTATATGATTCGGAGTCACCTAGTGCAG	8060 fluorescence intensity (a.u.)
ACACACGCCGGACTCTCCCCTTCTCTCTGTCTCGCTCCTTCGGAGTCACCTAGTGCAG	8600 fluorescence intensity (a.u.)
CCTGATCCATTTGCTGCCCTCTTGTTGCCTCTTTCTGGGGCGGAGTCACCTAGTGCAG	11300 fluorescence intensity (a.u.)
AATCCCCAGCCCTAGCCACCACCGCCGGTCTCTCCTCCCTCGGAGTCACCTAGTGCAG	8180 fluorescence intensity (a.u.)
TATATCTATGCGCCTCTTGTTGTGTCATATCGACTGATATCGGAGTCACCTAGTGCAG	10300 fluorescence intensity (a.u.)
CACAACCACCAGCTTTAAAAGAAGGGGCAAATGGGGAGGGCGGAGTCACCTAGTGCAG	8670 fluorescence intensity (a.u.)
TTGCAGCTTGGTCATGCAGGCTTCTTCACCAATTGTACTACGGAGTCACCTAGTGCAG	8990 fluorescence intensity (a.u.)
TATCACTCCTATTCGCGATATCGGCTGCCACTGAAATTTTCGGAGTCACCTAGTGCAG	12900 fluorescence intensity (a.u.)
CCGCCGTTCACCACATCCTGCCCACCCGCAACCCGCGCCGCGGAGTCACCTAGTGCAG	10100 fluorescence intensity (a.u.)
AACAATGGGTTATTTTTCATCTGTCATGTCTTACGGTTATCGGAGTCACCTAGTGCAG	11400 fluorescence intensity (a.u.)
TTAAATATGGATAGTTTGTATGTGTTTTGTTTATATATATCGGAGTCACCTAGTGCAG	9620 fluorescence intensity (a.u.)
ACTACTATTCGTTATATAGGCTACATGCCATTGAAAATTTCGGAGTCACCTAGTGCAG	8120 fluorescence intensity (a.u.)
CCAGGGAATTTAACCGTGCCCACACCCATCTGTTCCCTTCCGGAGTCACCTAGTGCAG	8260 fluorescence intensity (a.u.)
TTCCTGTAGACTATATTCATGGTGAATTAACCTTTCTTTCCGGAGTCACCTAGTGCAG	9110 fluorescence intensity (a.u.)
TATGTGCCTGTATTGGGCTAGATCATGATGGTATATTCTACGGAGTCACCTAGTGCAG	10400 fluorescence intensity (a.u.)
ACCTTCGAATCCAGCACACACCAACCACGTCCCCGACCTCCGGAGTCACCTAGTGCAG	8030 fluorescence intensity (a.u.)
TACACAACCCAACAACCGTCCATCCACTCGTTCAGGCGCTCGGAGTCACCTAGTGCAG	10400 fluorescence intensity (a.u.)
AAATCTCGTGTCTTCTGTAATTGATCTGTTGTTTTTTATCCGGAGTCACCTAGTGCAG	9900 fluorescence intensity (a.u.)
CTTTGCACGAAAATTGTCGAGTGATTTTTACAATTTCAACCGGAGTCACCTAGTGCAG	8350 fluorescence intensity (a.u.)
GCATTATTCGTCTATCCATTTTCTCCCATGCTAAATCCAACGGAGTCACCTAGTGCAG	9580 fluorescence intensity (a.u.)
GGGTTTGCATTATTTTGGAACGGAGGGAGTAGGTAGTAGCCGGAGTCACCTAGTGCAG	9350 fluorescence intensity (a.u.)
ACTTCGTCCAATTGCTCTCTCTCTCTCTCTCATTTCTTTTCGGAGTCACCTAGTGCAG	14200 fluorescence intensity (a.u.)
CATGCAGACTTTCCCGATTTCTCCGCCTCCACGTGTCACTCGGAGTCACCTAGTGCAG	9270 fluorescence intensity (a.u.)
TCCCGTGCACTCTCTCTGCAGCAGAATAATCTACTGAATCCGGAGTCACCTAGTGCAG	9160 fluorescence intensity (a.u.)
TTTTTTTTTCAGTTTTATTATTATTACTTACTTACACGCGCGGAGTCACCTAGTGCAG	8160 fluorescence intensity (a.u.)
CTTCCAGGATTTTTCTTCATTGCTTGAATGGTGCTCCACTCGGAGTCACCTAGTGCAG	11000 fluorescence intensity (a.u.)
GGGTTGAGCACAGCAGTTTACAGTAGTGTTATTTCGTATTCGGAGTCACCTAGTGCAG	11200 fluorescence intensity (a.u.)

Sequence	binding signal
CTCTATTTAAAATTTTCTTTCACCCATGAGTTCTTATATTCGGAGTCACCTAGTGCAG	9600 fluorescence intensity (a.u.)
TCGGAGGGGTTTTATGCAAAGTGTCGATTGGCTTTTTGTGCGGAGTCACCTAGTGCAG	14600 fluorescence intensity (a.u.)
AGAGGGATGTGCCATTGTTCTGTTTGGTTGAAAGACATTGCGGAGTCACCTAGTGCAG	9500 fluorescence intensity (a.u.)
GTCCAGTGGACCAACCGGGTCACGGTCTCACGTGCCAAAGCGGAGTCACCTAGTGCAG	8710 fluorescence intensity (a.u.)
TGGGGAGGGGAGGGAGAGGTGTCGTCAACAGGGAGGGAGGCGGAGTCACCTAGTGCAG	15300 fluorescence intensity (a.u.)
TCCTCTGATGGCCACCGTCGCCGTGTTCTTCCCGCTGCCGCGGAGTCACCTAGTGCAG	8340 fluorescence intensity (a.u.)
GTCTTGGGTTGGCTTGGCTTGCTGTCCGCCCGCGTTCACACGGAGTCACCTAGTGCAG	10400 fluorescence intensity (a.u.)
TCCAATCTCGGGTTCACATCCCCTGCCATCCAGCTCATACCGGAGTCACCTAGTGCAG	9860 fluorescence intensity (a.u.)
TACGCTTTTCTCCCTTCTTTCCCCTTTTCGCGCTATCCTTCGGAGTCACCTAGTGCAG	9800 fluorescence intensity (a.u.)
CAGCCTCCTCCTGTGTGCTTGATCCCAACCGACAACGTCCCGGAGTCACCTAGTGCAG	8100 fluorescence intensity (a.u.)
GATTGCTTCACTTTGCCATGCCACACTTCAGTCATGCCACCGGAGTCACCTAGTGCAG	8530 fluorescence intensity (a.u.)
GTCCTGCTACGCATACTCTCCCCTCTGACTCTTTGCGCCACGGAGTCACCTAGTGCAG	8250 fluorescence intensity (a.u.)
GGTCGCGAGAACTTGTGGCTGGGAGGGTCCAGGGCGCGCACGGAGTCACCTAGTGCAG	9780 fluorescence intensity (a.u.)
AGTCAAATTGCACCGGTTTCGAGAGTTAGGGGTTGAGATACGGAGTCACCTAGTGCAG	8810 fluorescence intensity (a.u.)
GGCTACGACTCTACCTCACATGCCCCACGCATCGTTTGCACGGAGTCACCTAGTGCAG	10400 fluorescence intensity (a.u.)
TTATTATGGTTATATTGTACTAATTCATTGTCCAGGTTTTCGGAGTCACCTAGTGCAG	8430 fluorescence intensity (a.u.)
AACGCCTCTGCCGCCCTCCTCTCTCTCTCTCTTGCTCGCTCGGAGTCACCTAGTGCAG	9550 fluorescence intensity (a.u.)
AGCGTTTCTTTTTTACCCGTTTCTGTCCTAACATGAACCCCGGAGTCACCTAGTGCAG	8170 fluorescence intensity (a.u.)
CATCCTCTGGTATCAATATAGTACTGGCCACATTTTTCCACGGAGTCACCTAGTGCAG	10700 fluorescence intensity (a.u.)
ACGCAGCATGCCACGCCGATCTCCTCGCGCCACGTCACCCCGGAGTCACCTAGTGCAG	8080 fluorescence intensity (a.u.)
GCGCTTCCGCCGCCGCCGCCACCACCACCGCCATCAACGCCGGAGTCACCTAGTGCAG	8940 fluorescence intensity (a.u.)
AGACGATCTCATGACATTAATTTGACCATCATTAGGCCTACGGAGTCACCTAGTGCAG	8230 fluorescence intensity (a.u.)
GGTGGTCTCTCTCTCTCTCTCTTCTCTCGCCTCACTTCGCCGGAGTCACCTAGTGCAG	8490 fluorescence intensity (a.u.)
AAAATTGAACCCTGTATATATATCATTTCTTATGTTGTATCGGAGTCACCTAGTGCAG	9490 fluorescence intensity (a.u.)
TTTCCGACATGGCATGTACGCGTCATCGTCGCCGCGCGTTCGGAGTCACCTAGTGCAG	9370 fluorescence intensity (a.u.)
ATCCATCCCACACTGCCACACAACGCCATCTCTCTCTCTCCGGAGTCACCTAGTGCAG	8560 fluorescence intensity (a.u.)
GGATCTGGCCACCCCGCCGCCATCGCCTGCCGTTTTATTTCGGAGTCACCTAGTGCAG	10700 fluorescence intensity (a.u.)

Two neighbouring entries from above:
Sequence	binding signal
TGGGGAGGGGAGGGAGAGGTGTCGTCAACAGGGAGGGAGGCGGAGTCACCTAGTGCAG	15300 fluorescence intensity (a.u.)
TCCTCTGATGGCCACCGTCGCCGTGTTCTTCCCGCTGCCGCGGAGTCACCTAGTGCAG	8340 fluorescence intensity (a.u.)
